Reference: patent US10738019B2, “Compound including basic dye and amino acid, hair dyeing dye, and hair dyeing composition” (HODOGAYA CHEMICAL CO., LTD., priority 2018, dated 2020)

Experiments:
Design in all cases: species or system Human
[1] = Sweat resistance test (basic artificial sweat); conditions: basic artificial sweat pH 8.0, 40° C., 10 minutes; for Residual rate (K/Sd ratio relative to untested specimen): bath ratio 1:10; for Hue difference ΔH: before vs after test
[2] = Sweat resistance test (acidic artificial sweat); conditions: acidic artificial sweat pH 5.5, 40° C., 10 minutes; for Residual rate (K/Sd ratio relative to untested specimen): bath ratio 1:10; for Hue difference ΔH: before vs after test
[3] = Hair dyeing concentration (K/Sd) of hair dyed with dyeing gel, spectrocolorimeter; conditions: before test; dyeing gel pH 6, hair dyed at 40° C. for 10 minutes, washed with water

SMILES | Residual rate (K/Sd ratio relative to untested specimen) [1] | Hue difference ΔH [1] | Residual rate (K/Sd ratio relative to untested specimen) [2] | Hue difference ΔH [2] | Dyeing concentration (K/Sd) [3]
C[N+](C)(C)c1ccc2ccc(O)c(N=Nc3ccc(N)cc3)c2c1.[Cl-] [Basic Brown 16, C.I. Basic Brown 16] | 73.4% | 0.89 | 85.8% | 0.87 | 60.7
CC1=CC(=C(c2ccc(N)c(C)c2)c2ccc(N)c(C)c2)C=CC1=N.Cl [Basic Violet 2, C.I. Basic Violet 2] | 74.7% | 1.02 | 97.5% | 1.03 | 81.2
CC1=CC(=C(c2ccc(N)c(C)c2)c2ccc(N)c(C)c2)C=CC1=N [Compound (A-3)] | 83.3% | 1.07 | 99.9% | 1.06 | 129.7
C[N+](C)(C)c1ccc2ccc(O)c(/N=N/c3ccc(N)cc3)c2c1 [Compound (A-5)] | 91.0% | 0.97 | 64.1% | 0.87 | 72.2
CC1=CC(=C(c2cc(C)c(N)c(C)c2)c2c(Cl)cccc2Cl)C=C(C)C1=N.O=P(O)(O)O [HC Blue 15, C.I. HC Blue 15] | 97.7% | 1.02 | 89.5% | 0.93 | 50.6
